Results published in PubChem BioAssay AID758 (NMMLSC, 2007).
Among all 190,000 compounds or so, about 110 (0.058%) were called active. The shares of active, inactive and inconclusive entries below differ from those in the screen.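 The calls were made as follows: active = fluorescent GTP binding to Rab7 beads changed by at least 20 points from the 100% baseline, either direction, mostly lower; inconclusive = compound itself probably fluorescent, or too few beads counted; inactive = the rest.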

system: Rab7 GTPase wild type (dog), Bodipy-FL-GTP binding; assay: modulators of GTP binding to Rab7, primary screen, biochemical, wildtype, multiplex bead flow cytometry (AID 758); details: GST-Rab7 beads, fluorescent GTP binding, at 10 µM, actives lie on both sides, untreated = 100%, excess cold GTP = 0%;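 also: median green fluorescence of bound Bodipy-FL-GTP per Rab7 bead population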

Compound | GTP binding activity (percent of control)
CC(NC(=O)OCc1ccccc1)C(=O)Oc1cc2oc(=O)cc(-c3ccccc3)c2cc1Cl (centres undefined) | inconclusive: 95%
O=C(CCN1CCc2ccccc2C1)Nc1cccc(F)c1 | inconclusive: 106%
CC1=CC(=O)C=C(C)C1=NOS(=O)(=O)c1ccccc1 | inactive: 90%
O=C1OC(OC2CCCCC2)(c2ccccc2)c2ccccc21 (centres undefined) | inconclusive: 110%
CCn1c(SCC(=O)N/N=C/c2c[nH]c3ccccc23)nnc1-c1ccc(Cl)cc1 | inactive: 96%
Cn1c(C(=O)N2CCc3ccccc3C2)cc2c(=O)n3ccccc3nc21 | inconclusive: 115%
Cc1cc(NCc2ccccn2)n2c(nc3ccccc32)c1C#N | active: 78%
CSCCC(NC(=O)C1CCC(C)CC1)C(=O)N1CCN(c2ccccn2)CC1 (centres undefined) | inconclusive: 105%
COc1cc(NS(=O)(=O)c2ccc(Nc3nc(-c4ccccc4)cs3)cc2)nc(OC)n1 | inactive: 80%
CC1CCN(CCCNC(=O)COc2cc(=O)n(C)c3ccccc23)CC1 | inconclusive: 94%
Cc1noc(C)c1C(c1ccccc1)S(=O)(=O)c1ccccc1 (centres undefined) | inconclusive: 101%
CCOC(=O)c1ccc(NC(=O)c2cc3ccccc3o2)cc1 | inconclusive: 96%
COCCNC(=S)N/N=C1\CC(C)CC(C)(C)C1 (centres undefined) | inactive: 96%
COc1cccc(N=Nc2c(N)[nH]n3c(=O)c4c(nc23)CCCC4)c1 | inconclusive: 84%
COc1ccc(C(C)=O)cc1COC(=O)c1cccnc1SC | inactive: 100%
Cc1ccc(N=Nc2c(N)[nH]n3c(=O)cc(-c4ccccc4)nc23)cc1 | inactive: 83%
COc1ccc(N(C(=O)c2ccc(Br)o2)C2C=CS(=O)(=O)C2)cc1 (centres undefined) | inconclusive: 103%
Cn1nnnc1SCC(=O)Nc1ccc2c(c1)OCO2 | inactive: 103%
Brc1[nH]nc2ccccc12 | inconclusive: 94%
CC(Sc1nc2ccccc2s1)C(=O)c1c(N)n(C)c(=O)n(C)c1=O (centres undefined) | inconclusive: 95%
OCCC1CN(Cc2ccccc2O)CCN1CCc1ccccc1 (centres undefined) | active: 10%
Cc1cccc(NCc2ccc(O)c3ncccc23)c1C | inconclusive: 89%
COCCN(C(=S)Nc1ccc(OC)cc1)C1CCN(C(C)C)CC1 | inactive: 102%
CC(=C\c1ccco1)/C=C(\C#N)C(=O)NCCc1c[nH]c2ccccc12 | inactive: 99%

Compound | GTP binding activity (percent of control)
Cc1nn(C)cc1C1C(C#N)=C(N)N(c2ccc(F)c([N+](=O)[O-])c2)C2=C1C(=O)CCC2 (centres undefined) | inactive: 104%
Cc1cccc2cc(CN(Cc3ccc(F)cc3)C(=O)N3CCOCC3)c3nnnn3c12 | inconclusive: 94%
CCn1nc(NC(=O)c2ccncc2)c2cc3cccc(C)c3nc21 | inconclusive: 103%
Cc1cc(C(C)(C)C)cc(S(=O)(=O)Nc2cccc(C(=O)O)c2)c1C | inconclusive: 93%
COc1ccc(CCn2c(N)c(C#N)c3nc4ccccc4nc32)cc1OC | inconclusive: 92%
Cc1cc(C#N)c(C)n1-c1cc(C(F)(F)F)ccc1N1CCOCC1 | inconclusive: 102%
O=C(C1CCN(C2CCN(Cc3ccc4cc(F)ccc4n3)CC2)CC1)N1CCCC1 | inactive: 98%
COc1ccc(C2C(C(C)=O)=C(O)C(=O)N2c2nccs2)cc1 (centres undefined) | inconclusive: 92%
CCOCCCNC(=O)CN1C(=O)/C(=C/c2ccccc2)Sc2ccccc21 | inactive: 96%
NC1=NC(=O)C2(COC(c3cccnc3)OC2)S1 (centres undefined) | inconclusive: 92%
COc1ccc(S(=O)(=O)N2CCC(C(=O)NCC3CCCO3)CC2)cc1 (centres undefined) | inconclusive: 104%
O=C(O)C1CSC(c2coc3ccccc3c2=O)N1 (centres undefined) | inactive: 101%
COc1ccc(S(=O)(=O)N(Cc2cc3ccc(OC)cc3[nH]c2=O)CC2COCCO2)cc1 (centres undefined) | inconclusive: 105%
CCOC(=O)CSc1nc(NCc2ccco2)c2ccccc2n1 | inconclusive: 103%
O=Cc1cc(N=Nc2cccc(C(=O)O)c2)ccc1O | inconclusive: 88%
Cc1cccc(NC2=NCC(=O)N2Cc2ccccc2)c1 | inconclusive: 103%
CS(=O)(=O)N1CCC(C(=O)Nc2ccc(Cl)c(Cl)c2)CC1 | inconclusive: 94%
Cc1nc(C)c(-c2csc(Nc3cccnc3)n2)s1 | inconclusive: 88%
CNC(=S)N/N=C/c1cn(Cc2c(F)cccc2Cl)c2ccccc12 | inconclusive: 97%
O=C(COC(=O)CNC(=O)c1ccccc1)Nc1ccc(F)c([N+](=O)[O-])c1 | inactive: 105%
COc1cc2c(cc1OC)CN(CC(=O)Nc1ccc(Cl)c(S(=O)(=O)N(C)C)c1)CC2 | inactive: 100%
CC(Oc1ccccc1)C(=O)Nc1cccc(-c2nc3ccccc3[nH]2)c1 (centres undefined) | inconclusive: 92%
O=C(Nc1ccc(N2C(=O)CCC2=O)cc1Cl)c1cccs1 | inactive: 104%
CS(=O)(=O)N(Cc1ccc(Cl)cc1)c1ccc(C(=O)NCCC2=CCCCC2)cc1 | inconclusive: 98%

An excerpt of these results, with tabs:
Compound	GTP binding activity (percent of control)
Cc1cccc(NC2=NCC(=O)N2Cc2ccccc2)c1	inconclusive: 103%
CS(=O)(=O)N1CCC(C(=O)Nc2ccc(Cl)c(Cl)c2)CC1	inconclusive: 94%
Cc1nc(C)c(-c2csc(Nc3cccnc3)n2)s1	inconclusive: 88%

Not a retest: an excerpt of the list.
Compound | GTP binding activity (percent of control)
O=C(C1CCN(C2CCN(Cc3ccc4cc(F)ccc4n3)CC2)CC1)N1CCCC1 | inactive: 98%
COc1ccc(C2C(C(C)=O)=C(O)C(=O)N2c2nccs2)cc1 (centres undefined) | inconclusive: 92%
CCOCCCNC(=O)CN1C(=O)/C(=C/c2ccccc2)Sc2ccccc21 | inactive: 96%
NC1=NC(=O)C2(COC(c3cccnc3)OC2)S1 (centres undefined) | inconclusive: 92%

(further entries)

Compound | GTP binding activity (percent of control)
Cc1ccc(-c2nnc(-c3ccccc3S(=O)(=O)Cc3ccc(Cl)cc3)o2)cc1 | inconclusive: 110%
COc1ccc(Cc2c[nH]c(=O)[nH]c2=O)cc1 | inconclusive: 91%
CC(C)CCNC(=O)COC(=O)c1cc(Br)c(Br)s1 | inconclusive: 96%
COc1ccc(/C=N\NC(=O)c2sc(N)nc2C)cc1OC | inconclusive: 95%
CCc1ccc(NC(=S)N2CCN(c3cccc(OC)c3)CC2)cc1 | inactive: 92%
CN(CCc1cnn(C)c1)Cc1cn[nH]c1-c1ccc(-c2ccccc2)cc1 | inactive: 94%
OC(CNCCC1C=Nc2ccccc21)Cn1c2ccc(Cl)cc2c2cc(Cl)ccc21 (centres undefined) | inactive: 112%
Cc1sc(NC(=O)c2ccco2)c(C(c2ccncc2)N2CCOCC2)c1C (centres undefined) | inconclusive: 95%
CC1CCCN(C(=S)NC2CCCC2)C1 (centres undefined) | inactive: 96%
O=C(O)CCC(=O)Nc1ccc(Br)cn1 | inactive: 95%
Cc1cc(C)cc(Nc2nc3c([nH]2)c(=O)n(C)c(=O)n3C)c1 | inconclusive: 97%
COc1cccc(CNCC(O)(c2ccc(Cl)cc2)c2ccc(Cl)cc2)c1 | inconclusive: 101%
COc1ccc(OCCSc2nc3nc(C)cc(C)n3n2)cc1 | inconclusive: 86%
C/C(N)=C(/C#N)C(=O)CSc1nnnn1-c1ccc(C)cc1 | inconclusive: 104%
O=C(O)c1cc(-c2ccc(/C=C3\NC(=O)N(c4ccc(Cl)cc4)C3=O)o2)ccc1Cl | inactive: 94%
O=C(/C=C/c1ccccc1)Nc1ccc(C(=O)N2CCCCC2)cc1 | inactive: 99%
COc1ccc(CC(=O)NCc2cccs2)cc1 | inconclusive: 102%
COc1ccc(-c2nnc(SCC(=O)Nc3nncs3)o2)cc1 | inconclusive: 88%
COc1ccc2c(c1)CCCC21SC(NC(C)=O)=NN1C(C)=O (centres undefined) | inactive: 102%
CCOc1cc(/C=C/C(=O)OCC(=O)NC2CCS(=O)(=O)C2)ccc1OCc1ccccc1 (centres undefined) | inactive: 99%
COc1cccc(C(=O)Nc2cccc3c2ccc2cccn23)c1 | inconclusive: 93%
Brc1c(OCCOCCn2cncn2)ccc2ccccc12 | inconclusive: 97%
CCOC(=O)N1CCN(CC(=O)Nc2ccc(C)c(Br)c2)CC1 | inactive: 97%
c1ccc(C2=Nn3c(nnc3-c3ccco3)SC2)cc1 | inconclusive: 89%

Compound | GTP binding activity (percent of control)
CCOc1ccccc1N(CC(=O)N1CCCCCC1)S(C)(=O)=O | inconclusive: 105%
COc1ccccc1N1CCN(C(=O)CN(c2cc(C)cc(C)c2)S(C)(=O)=O)CC1 | inactive: 97%
CCc1ccc(C(=O)/C=C/Nc2ccc(S(=O)(=O)Nc3onc(C)c3C)cc2)cc1 | inconclusive: 92%
Cc1cc(Cl)ccc1NC(=S)NCCN1CCOCC1 | inconclusive: 98%
CCOc1ccccc1C1C(C#N)=C(N)Oc2n[nH]c(CC)c21 (centres undefined) | inconclusive: 104%
O=C(CSc1nc2ccccc2c(=O)n1NC(=O)c1ccccc1)c1ccccc1 | inconclusive: 95%
CCC1SC2=NC(C)=C(C(=O)OC)C(c3ccc(C)cc3)N2C1=O (centres undefined) | inconclusive: 90%
Cc1ccc(S(=O)(=O)Nc2cccnc2)cc1 | inconclusive: 100%
Cc1ccc(C(=O)N/N=C(\CC(C)C)c2ccccc2)cc1 | inconclusive: 118%
COc1cc(C(=O)Nc2ccc3c(c2)CCN3C(C)=O)cc(OC)c1OC | inconclusive: 172%
COc1ccc(CCNC(=O)[C@@H](NC(=O)c2ccccc2F)C(C)C)cc1OC | inactive: 95%
CNS(=O)(=O)c1ccc(NC(=O)C2CC(=O)N(c3ccc(Cl)cc3)C2)cc1 (centres undefined) | inconclusive: 96%
COC(=O)c1cn(C(=O)/C=C/c2ccc(OC)c(OC)c2)c2ccccc12 | inconclusive: 95%
O=C(Cc1ccccc1)NNC(=O)C1CCCC1 | inconclusive: 96%
CN(C)CCCNCCCCNC(=O)/C=N/O | inconclusive: 103%
O=C(Cn1cnc2c(nnn2Cc2ccc(F)cc2)c1=O)OCc1ccccc1 | inconclusive: 99%
O=C(CCc1nnc(CCCc2ccccc2)o1)NC(C1CC1)C1CC1 | inconclusive: 95%
COc1cccc(N=Nc2c(N)[nH]n3c(=O)cc(-c4ccccc4)nc23)c1 | inactive: 94%
COc1ccc(-c2nn(-c3ccccc3)cc2/C=C/C(=O)N2CCN(c3ccccn3)CC2)cc1 | inactive: 101%
COc1ccc(OC)c(C2CC(=O)Nc3n[nH]c(-c4ccccc4)c32)c1 (centres undefined) | inconclusive: 97%
CCn1c(CNC(=O)c2ccccc2F)nnc1SCC(=O)NC1CCCCC1C (centres undefined) | inactive: 92%
Cn1nc(C(=O)NCCOc2ccccc2)c2ccccc2c1=O | inactive: 102%
